Values from PubChem BioAssay AID1508588 (Peter MacCallum Cancer Centre, 2020)

- Screen: 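Knock-downs boosting vemurafenib effects on melanoma cell growth or lactate release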 (primary screen)
- Cell system: human WM266.4 melanoma cells (BRAF V600 mutant)
- Reagent: siRNA pool against human genes, 40 nM
- Time to read-out: 96 h from transfection to read-out
- Conditions: vemurafenib 300 nM (about IC25), added 48 h after transfection, for 48 h; comparison arm got DMSO vehicle only
- Measurement: 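Ratios to non-targeting siRNA for cell gain, counted as DAPI nuclei after minus before drug and averaged over two replicates, and for absorbance-read medium lactate per cell; both binned into fold-change classes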
- Reading the numbers: cell gain with vemurafenib: higher = more cell gain than with non-targeting siRNA; lactate per cell with vemurafenib: higher = more lactate made per cell
- Call rule: 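Enhancement is called by pairing each knock-down's vehicle-arm and drug-arm fold-change classes for viability or glycolysis; which class combinations qualify is not given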
- Calls: active = enhances vemurafenib effect; inactive = no enhancement seen
In all, the deposit lists about 18,000 reagents; this is a part drawn at random. 790 of them (4.4%) count as active. 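Calls rest on a combination of fold-change classes in drug and vehicle arms, not all shown here.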

Silencing of FAM13B came out at: cell gain with vemurafenib 0.69; lactate per cell with vemurafenib 1.78; inactive.
Silencing of MOB2 gave: cell gain with vemurafenib 0.6; lactate per cell with vemurafenib 1.36; inactive.
Against RHOG, the entry reads cell gain with vemurafenib 0.47; lactate per cell with vemurafenib 1.6; inactive.
For ROPN1L the deposit lists cell gain with vemurafenib 0.29; lactate per cell with vemurafenib 0.84; inactive.
Against DCAF11, the entry reads cell gain with vemurafenib 0.68; lactate per cell with vemurafenib 0.71; inactive.
Against UAP1, the values are cell gain with vemurafenib 0.55; lactate per cell with vemurafenib 0.38; inactive.
After knock-down of GNG8 the results were cell gain with vemurafenib 0; lactate per cell with vemurafenib 0; inactive.
After knock-down of CFAP52, the screen gave cell gain with vemurafenib 0.59; lactate per cell with vemurafenib 0.64; inactive.
After knock-down of TEAD2, the screen gave cell gain with vemurafenib 0.95; lactate per cell with vemurafenib 0.46; inactive.
Depletion of OR6C65 gave: cell gain with vemurafenib 0.72; lactate per cell with vemurafenib 1.3; inactive.
Silencing of KLHL25 resulted in: cell gain with vemurafenib 0.6; lactate per cell with vemurafenib 0.94; inactive.
Knock-down of PI4KAP2 gave: cell gain with vemurafenib 0.34; lactate per cell with vemurafenib 1.58; inactive.
Against KGD4, the entry reads cell gain with vemurafenib 0.57; lactate per cell with vemurafenib 0.67; inactive.
HOXD9 gave cell gain with vemurafenib 0.23; lactate per cell with vemurafenib 0.9; inactive.
Silencing of RNF125 came out at: cell gain with vemurafenib 0.99; lactate per cell with vemurafenib 0.74; inactive.
ANKRD44 scored cell gain with vemurafenib 0.58; lactate per cell with vemurafenib 2.13; inactive.
NAGPA gave cell gain with vemurafenib 0.8; lactate per cell with vemurafenib 0.32; inactive.
For ARMC12, the entry reads cell gain with vemurafenib 0.46; lactate per cell with vemurafenib 0.58; inactive.
PRSS54 showed cell gain with vemurafenib 0.67; lactate per cell with vemurafenib 0.84; inactive.
ZNF267 gave cell gain with vemurafenib 0; lactate per cell with vemurafenib 0; inactive.
Depletion of PIAS1 gave: cell gain with vemurafenib 0.63; lactate per cell with vemurafenib 1.25; inactive.
AQP7 scored cell gain with vemurafenib 1.05; lactate per cell with vemurafenib 0.98; inactive.
ARHGAP22 showed cell gain with vemurafenib 1; lactate per cell with vemurafenib 1.11; inactive.
GOLGA2P5 gave cell gain with vemurafenib 0.32; lactate per cell with vemurafenib 1.26; inactive.
WFDC9 scored cell gain with vemurafenib 0.79; lactate per cell with vemurafenib 0.74; inactive.
Knock-down of ZNF514 came out at: cell gain with vemurafenib 0.46; lactate per cell with vemurafenib 1.19; inactive.
For ITIH1 the deposit lists cell gain with vemurafenib 0.41; lactate per cell with vemurafenib 0.86; inactive.
Knock-down of PPDPF resulted in: cell gain with vemurafenib 0.31; lactate per cell with vemurafenib 0.88; inactive.
For DCTPP1 the deposit lists cell gain with vemurafenib 0.51; lactate per cell with vemurafenib 0.94; inactive.
Against KCNJ11, the entry reads cell gain with vemurafenib 0.62; lactate per cell with vemurafenib 0.98; inactive.
Knock-down of ADGRG7 resulted in: cell gain with vemurafenib 0.38; lactate per cell with vemurafenib 1.63; inactive.
TRIM39 scored cell gain with vemurafenib 0.82; lactate per cell with vemurafenib 0.9; inactive.
Silencing of LIPN came out at: cell gain with vemurafenib 0.39; lactate per cell with vemurafenib 1.7; inactive.
MAP3K10 showed cell gain with vemurafenib 0.85; lactate per cell with vemurafenib 0.44; inactive.
Silencing of TMEM242 resulted in: cell gain with vemurafenib 0.87; lactate per cell with vemurafenib 0.7; inactive.
For GRB14 the deposit lists cell gain with vemurafenib 0.3; lactate per cell with vemurafenib 1.12; inactive.
LPCAT2 scored cell gain with vemurafenib 0.4; lactate per cell with vemurafenib 0.86; inactive.
After knock-down of ZRANB3 the results were cell gain with vemurafenib 0.98; lactate per cell with vemurafenib 0.6; inactive.
Against NPY5R the deposit lists cell gain with vemurafenib 0.09; lactate per cell with vemurafenib 0.62; inactive.
Against FANCA, the values are cell gain with vemurafenib 0.45; lactate per cell with vemurafenib 0.92; inactive.
